Part of at least one peptide drawing is inferred or uncertain, most often the ends. Positions of bridges follow the written chain, without caps; N, C: chain ends. Residues, ends and D or L forms follow the SMILES beside them. Chains are numbered I, II in the order given. *: point of attachment. Mob = COc1ccc(C*)cc1
System: mouse endotoxin shock model
Test: Mouse endotoxin shock model (galactosamine + LPS), survival
Assay type: in vivo, C57BL/6 mice

For COc1ccc(CSC[C@H](NC(=O)CNC(=O)[C@H](CCCNC(=N)N)NC(=O)[C@@H](N)CCCCN)C(=O)NCC(=O)N[C@H](C(=O)N[C@@H](CCCCN)C(=O)N[C@@H](Cc2ccccc2)C(=O)N[C@@H](CC(C)C)C(=O)N[C@@H](CO)C(=O)N[C@@H](Cc2ccc(O)cc2)C(=O)N[C@@H](CCCCN)C(=O)N[C@@H](Cc2ccccc2)C(=O)N[C@@H](CO)C(=O)N[C@@H](CSSC[C@H](NC(=O)[C@H](CO)NC(=O)[C@H](Cc2ccccc2)NC(=O)[C@H](CCCCN)NC(=O)[C@H](Cc2ccc(O)cc2)NC(=O)[C@H](CO)NC(=O)[C@H](CC(C)C)NC(=O)[C@H](Cc2ccccc2)NC(=O)[C@H](CCCCN)NC(=O)[C@@H](NC(=O)CNC(=O)[C@H](CSCc2ccc(OC)cc2)NC(=O)CNC(=O)[C@H](CCCNC(=N)N)NC(=O)[C@@H](N)CCCCN)[C@@H](C)O)C(=O)O)C(=O)O)[C@@H](C)O)cc1 [Peptide (2)] (I: H-KRGC(Mob)GTKFLSYKFSC-OH / II: H-KRGC(Mob)GTKFLSYKFSC-OH; disulfide I:15-II:15), the Survived animals/observed animals (200 µg/mouse intraperitoneal together with 12 mg galactosamine and 0.1 µg LPS, after 24 hours) was 8/8, the Survived animals/observed animals (200 µg/mouse, intravenous immediately after 12 mg galactosamine and 0.15 µg LPS i.p.) was 2/8 and the Survived animals/observed animals (200 µg/mouse, simultaneous intraperitoneal, 12 mg galactosamine and 0.15 µg LPS i.p.) was 8/8. For the same compound, the Survived animals/observed animals (800 µg/mouse intraperitoneal together with 12 mg galactosamine and 0.1 µg LPS, after 24 hours) was 8/8 and the “survival effect in the mouse endotoxin shock model” value (statement in text on Table 6) was “good survival effect”.
